Holding throughout (assay): co-IP
In assay [1] the target is GABARAP, endogenous in HEK293T (human (endogenous in HEK293T)) (UniProt O95166).
Assay [2] has as its target T1, HA-WSTF wild-type (HEK293T) (UniProt Q9UIG0).
T1 sequence: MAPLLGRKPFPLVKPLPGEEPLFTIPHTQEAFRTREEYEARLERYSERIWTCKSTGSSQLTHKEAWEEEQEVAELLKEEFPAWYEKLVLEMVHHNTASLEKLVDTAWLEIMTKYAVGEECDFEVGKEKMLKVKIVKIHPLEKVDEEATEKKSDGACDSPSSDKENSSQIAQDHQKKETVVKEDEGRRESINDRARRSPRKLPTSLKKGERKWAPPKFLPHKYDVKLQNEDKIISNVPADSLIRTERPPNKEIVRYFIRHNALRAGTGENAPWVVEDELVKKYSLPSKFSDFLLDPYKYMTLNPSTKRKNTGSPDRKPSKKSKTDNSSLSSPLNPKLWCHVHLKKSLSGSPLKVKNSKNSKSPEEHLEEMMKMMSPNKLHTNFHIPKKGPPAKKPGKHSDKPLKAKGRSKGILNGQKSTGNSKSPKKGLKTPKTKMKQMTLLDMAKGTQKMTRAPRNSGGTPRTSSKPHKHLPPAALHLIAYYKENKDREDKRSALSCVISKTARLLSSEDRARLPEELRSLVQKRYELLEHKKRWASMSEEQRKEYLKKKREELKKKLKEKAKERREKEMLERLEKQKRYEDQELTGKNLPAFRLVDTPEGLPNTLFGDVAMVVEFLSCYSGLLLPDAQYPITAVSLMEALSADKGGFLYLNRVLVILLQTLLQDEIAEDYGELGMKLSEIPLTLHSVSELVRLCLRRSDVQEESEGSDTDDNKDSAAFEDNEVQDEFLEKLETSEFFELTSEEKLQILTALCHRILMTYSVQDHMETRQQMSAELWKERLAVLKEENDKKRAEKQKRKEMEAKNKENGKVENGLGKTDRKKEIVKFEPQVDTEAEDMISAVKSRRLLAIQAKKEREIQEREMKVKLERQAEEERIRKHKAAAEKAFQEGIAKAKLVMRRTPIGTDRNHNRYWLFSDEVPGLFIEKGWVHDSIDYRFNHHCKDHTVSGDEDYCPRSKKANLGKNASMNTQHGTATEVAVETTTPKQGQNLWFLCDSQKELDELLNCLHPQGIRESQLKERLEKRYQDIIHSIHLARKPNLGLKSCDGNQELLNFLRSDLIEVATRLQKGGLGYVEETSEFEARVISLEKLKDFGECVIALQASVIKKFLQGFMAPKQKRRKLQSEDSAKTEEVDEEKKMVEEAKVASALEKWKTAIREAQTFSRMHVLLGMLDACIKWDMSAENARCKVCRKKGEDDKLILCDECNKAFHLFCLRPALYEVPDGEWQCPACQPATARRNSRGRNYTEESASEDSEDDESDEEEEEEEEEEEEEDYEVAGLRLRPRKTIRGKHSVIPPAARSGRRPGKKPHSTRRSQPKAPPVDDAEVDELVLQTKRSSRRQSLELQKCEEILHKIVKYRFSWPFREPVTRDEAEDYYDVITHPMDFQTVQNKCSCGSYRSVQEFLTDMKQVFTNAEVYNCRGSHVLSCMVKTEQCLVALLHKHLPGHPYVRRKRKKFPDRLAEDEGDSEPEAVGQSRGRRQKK

Sequences of proteins named here, by UniProt entry; tags and fusion partners are left off. A change or cut given only in a name is not applied to a line headed by its entry.
UniProt O95166, whole entry: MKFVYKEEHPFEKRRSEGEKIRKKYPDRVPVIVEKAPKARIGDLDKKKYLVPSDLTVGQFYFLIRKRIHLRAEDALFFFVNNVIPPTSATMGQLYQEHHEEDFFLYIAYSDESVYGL
UniProt Q04206, whole entry: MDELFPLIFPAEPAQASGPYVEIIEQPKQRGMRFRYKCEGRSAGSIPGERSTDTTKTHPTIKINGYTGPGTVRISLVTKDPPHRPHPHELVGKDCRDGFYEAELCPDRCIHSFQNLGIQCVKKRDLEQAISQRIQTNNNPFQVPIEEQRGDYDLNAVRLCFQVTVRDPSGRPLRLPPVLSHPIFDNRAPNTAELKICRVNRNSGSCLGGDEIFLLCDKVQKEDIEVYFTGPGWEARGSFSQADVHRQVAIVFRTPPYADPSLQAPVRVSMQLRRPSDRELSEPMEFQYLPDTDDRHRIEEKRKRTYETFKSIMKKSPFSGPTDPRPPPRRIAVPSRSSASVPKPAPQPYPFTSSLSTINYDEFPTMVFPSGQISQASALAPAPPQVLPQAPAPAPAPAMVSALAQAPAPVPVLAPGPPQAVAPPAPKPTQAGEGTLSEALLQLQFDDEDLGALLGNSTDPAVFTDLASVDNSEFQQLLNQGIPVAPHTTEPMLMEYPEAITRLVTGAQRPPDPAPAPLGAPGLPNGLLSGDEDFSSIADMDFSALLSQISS
UniProt P51531, whole entry: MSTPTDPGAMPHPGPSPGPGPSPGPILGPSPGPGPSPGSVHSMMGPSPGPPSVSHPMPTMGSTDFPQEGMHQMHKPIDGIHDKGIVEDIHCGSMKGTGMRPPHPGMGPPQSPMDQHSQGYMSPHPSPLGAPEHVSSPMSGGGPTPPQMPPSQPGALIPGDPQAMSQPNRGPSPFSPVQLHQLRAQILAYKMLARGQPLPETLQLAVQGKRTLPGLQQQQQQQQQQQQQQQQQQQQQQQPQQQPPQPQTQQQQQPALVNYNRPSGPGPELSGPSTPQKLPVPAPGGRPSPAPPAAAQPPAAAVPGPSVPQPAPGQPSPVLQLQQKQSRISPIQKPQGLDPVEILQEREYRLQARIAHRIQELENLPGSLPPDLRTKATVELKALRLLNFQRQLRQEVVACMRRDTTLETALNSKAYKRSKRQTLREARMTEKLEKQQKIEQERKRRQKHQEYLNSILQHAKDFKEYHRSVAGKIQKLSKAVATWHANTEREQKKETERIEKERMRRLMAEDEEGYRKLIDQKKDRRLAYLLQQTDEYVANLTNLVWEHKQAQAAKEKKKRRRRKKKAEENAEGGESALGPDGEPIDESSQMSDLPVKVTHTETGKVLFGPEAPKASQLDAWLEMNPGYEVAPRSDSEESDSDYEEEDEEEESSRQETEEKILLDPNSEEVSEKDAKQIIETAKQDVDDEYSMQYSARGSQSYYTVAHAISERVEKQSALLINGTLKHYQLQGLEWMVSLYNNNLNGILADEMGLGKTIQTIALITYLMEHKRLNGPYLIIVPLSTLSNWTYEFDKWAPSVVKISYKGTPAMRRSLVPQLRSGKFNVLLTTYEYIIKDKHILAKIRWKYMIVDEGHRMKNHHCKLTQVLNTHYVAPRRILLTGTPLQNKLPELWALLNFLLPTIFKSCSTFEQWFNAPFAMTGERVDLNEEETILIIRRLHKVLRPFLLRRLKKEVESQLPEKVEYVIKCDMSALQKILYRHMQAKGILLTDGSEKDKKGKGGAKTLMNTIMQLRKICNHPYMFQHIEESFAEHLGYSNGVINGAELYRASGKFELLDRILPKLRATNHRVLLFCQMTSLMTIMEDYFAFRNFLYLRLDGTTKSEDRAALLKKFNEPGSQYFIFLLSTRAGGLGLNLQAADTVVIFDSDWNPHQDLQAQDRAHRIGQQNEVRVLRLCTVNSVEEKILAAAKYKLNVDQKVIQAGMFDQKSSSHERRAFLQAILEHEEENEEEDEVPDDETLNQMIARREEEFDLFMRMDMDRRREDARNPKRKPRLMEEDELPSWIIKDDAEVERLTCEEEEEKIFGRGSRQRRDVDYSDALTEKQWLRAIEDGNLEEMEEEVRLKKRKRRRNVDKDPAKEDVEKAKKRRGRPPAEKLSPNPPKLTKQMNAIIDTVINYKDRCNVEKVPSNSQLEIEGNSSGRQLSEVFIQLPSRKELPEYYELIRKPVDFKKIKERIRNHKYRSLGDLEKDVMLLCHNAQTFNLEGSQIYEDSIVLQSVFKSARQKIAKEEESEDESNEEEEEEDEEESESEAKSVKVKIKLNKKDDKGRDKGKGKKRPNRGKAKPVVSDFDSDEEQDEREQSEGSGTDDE
UniProt P51532, whole entry: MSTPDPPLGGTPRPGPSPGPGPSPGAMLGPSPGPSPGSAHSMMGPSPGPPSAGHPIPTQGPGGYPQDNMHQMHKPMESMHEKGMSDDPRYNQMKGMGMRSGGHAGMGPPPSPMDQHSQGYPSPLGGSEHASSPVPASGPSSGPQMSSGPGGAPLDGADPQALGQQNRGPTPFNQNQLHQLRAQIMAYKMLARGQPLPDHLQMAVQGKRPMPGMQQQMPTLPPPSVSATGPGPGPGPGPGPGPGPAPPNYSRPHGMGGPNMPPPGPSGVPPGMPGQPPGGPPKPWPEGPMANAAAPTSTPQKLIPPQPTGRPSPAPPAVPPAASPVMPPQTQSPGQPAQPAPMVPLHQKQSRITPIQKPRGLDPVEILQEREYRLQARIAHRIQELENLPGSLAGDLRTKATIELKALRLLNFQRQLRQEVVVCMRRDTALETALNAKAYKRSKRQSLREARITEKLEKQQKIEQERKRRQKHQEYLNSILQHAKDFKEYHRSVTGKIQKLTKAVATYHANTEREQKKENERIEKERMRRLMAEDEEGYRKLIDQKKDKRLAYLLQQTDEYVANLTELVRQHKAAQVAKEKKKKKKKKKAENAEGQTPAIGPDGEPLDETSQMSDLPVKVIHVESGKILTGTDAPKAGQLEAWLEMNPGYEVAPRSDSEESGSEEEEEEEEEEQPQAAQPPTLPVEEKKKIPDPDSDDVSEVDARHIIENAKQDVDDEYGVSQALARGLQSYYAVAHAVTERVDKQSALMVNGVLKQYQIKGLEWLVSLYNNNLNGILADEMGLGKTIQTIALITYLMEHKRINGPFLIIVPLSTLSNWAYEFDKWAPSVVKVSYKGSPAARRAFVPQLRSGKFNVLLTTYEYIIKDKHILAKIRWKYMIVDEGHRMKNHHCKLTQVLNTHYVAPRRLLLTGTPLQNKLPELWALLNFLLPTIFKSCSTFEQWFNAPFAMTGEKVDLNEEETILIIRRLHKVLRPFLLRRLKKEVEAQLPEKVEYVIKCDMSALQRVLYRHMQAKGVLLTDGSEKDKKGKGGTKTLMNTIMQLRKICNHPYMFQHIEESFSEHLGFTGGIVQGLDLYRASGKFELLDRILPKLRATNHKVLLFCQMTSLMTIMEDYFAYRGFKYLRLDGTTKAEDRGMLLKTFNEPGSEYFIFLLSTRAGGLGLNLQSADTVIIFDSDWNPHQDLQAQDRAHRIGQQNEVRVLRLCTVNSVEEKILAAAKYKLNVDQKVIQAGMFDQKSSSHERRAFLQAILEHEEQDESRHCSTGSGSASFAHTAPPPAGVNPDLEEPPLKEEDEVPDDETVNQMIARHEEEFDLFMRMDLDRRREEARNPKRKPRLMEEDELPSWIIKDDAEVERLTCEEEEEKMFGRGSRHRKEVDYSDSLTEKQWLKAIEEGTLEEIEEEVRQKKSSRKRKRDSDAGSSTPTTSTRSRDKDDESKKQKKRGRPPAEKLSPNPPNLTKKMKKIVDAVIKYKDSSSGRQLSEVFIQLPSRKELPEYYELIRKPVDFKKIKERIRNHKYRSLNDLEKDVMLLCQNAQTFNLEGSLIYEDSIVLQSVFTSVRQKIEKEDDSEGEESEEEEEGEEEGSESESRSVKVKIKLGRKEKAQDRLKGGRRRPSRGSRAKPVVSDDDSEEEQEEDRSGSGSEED

The target of assay [3] is GABARAP, endogenous in HEK293T (human (endogenous in HEK293T)) (UniProt O95166). The source holds these as a separate data set.
Assay [4] has as its target p65, endogenous in IMR90 (human (endogenous in IMR90)) (UniProt Q04206).

Among the data in paper doi:10.1101/2022.10.04.510822 (bioRxiv, 2022) are binding values, retold here.

Like-named read-outs stand apart in the source and are kept apart here. No constants are given. Whether binding was seen depends on the method and setting. Binding seen in cells or lysates may run through a third protein. Some binding calls cover weakened binding; strength is not graded here. For some assays here: Sequences can lack the tags named with a protein.

“HA-WSTF △474-483 (HEK293T) (from UniProt Q9UIG0 1-1483)”: in assay [1], the binding entry was “no binding”.

As to “T7-p65 3KR (T7-RelA(3KR)) (from UniProt Q04206 1-551)”, the binding entry in assay [2] is given as “binds”.

With “T7-p65 wild-type (T7-RelA) (from UniProt Q04206 1-551)”, the binding result in assay [2] is “binds”.

With “HA-WSTF L476A (HEK293T) (from UniProt Q9UIG0 1-1483)”, in assay [1], the binding entry is “no binding”.

For “BRM, endogenous in HEK293T (from UniProt P51531 1-1590)”, the binding result in assay [1] is “binds weakly”.

Take “BRG1, endogenous in HEK293T (from UniProt P51532 1-1647)”: the binding entry in assay [1] is “binds weakly”.

B1: HA-WSTF wild-type (HEK293T) (protein, UniProt Q9UIG0 1-1483)
chain: MAPLLGRKPFPLVKPLPGEEPLFTIPHTQEAFRTREEYEARLERYSERIWTCKSTGSSQLTHKEAWEEEQEVAELLKEEFPAWYEKLVLEMVHHNTASLEKLVDTAWLEIMTKYAVGEECDFEVGKEKMLKVKIVKIHPLEKVDEEATEKKSDGACDSPSSDKENSSQIAQDHQKKETVVKEDEGRRESINDRARRSPRKLPTSLKKGERKWAPPKFLPHKYDVKLQNEDKIISNVPADSLIRTERPPNKEIVRYFIRHNALRAGTGENAPWVVEDELVKKYSLPSKFSDFLLDPYKYMTLNPSTKRKNTGSPDRKPSKKSKTDNSSLSSPLNPKLWCHVHLKKSLSGSPLKVKNSKNSKSPEEHLEEMMKMMSPNKLHTNFHIPKKGPPAKKPGKHSDKPLKAKGRSKGILNGQKSTGNSKSPKKGLKTPKTKMKQMTLLDMAKGTQKMTRAPRNSGGTPRTSSKPHKHLPPAALHLIAYYKENKDREDKRSALSCVISKTARLLSSEDRARLPEELRSLVQKRYELLEHKKRWASMSEEQRKEYLKKKREELKKKLKEKAKERREKEMLERLEKQKRYEDQELTGKNLPAFRLVDTPEGLPNTLFGDVAMVVEFLSCYSGLLLPDAQYPITAVSLMEALSADKGGFLYLNRVLVILLQTLLQDEIAEDYGELGMKLSEIPLTLHSVSELVRLCLRRSDVQEESEGSDTDDNKDSAAFEDNEVQDEFLEKLETSEFFELTSEEKLQILTALCHRILMTYSVQDHMETRQQMSAELWKERLAVLKEENDKKRAEKQKRKEMEAKNKENGKVENGLGKTDRKKEIVKFEPQVDTEAEDMISAVKSRRLLAIQAKKEREIQEREMKVKLERQAEEERIRKHKAAAEKAFQEGIAKAKLVMRRTPIGTDRNHNRYWLFSDEVPGLFIEKGWVHDSIDYRFNHHCKDHTVSGDEDYCPRSKKANLGKNASMNTQHGTATEVAVETTTPKQGQNLWFLCDSQKELDELLNCLHPQGIRESQLKERLEKRYQDIIHSIHLARKPNLGLKSCDGNQELLNFLRSDLIEVATRLQKGGLGYVEETSEFEARVISLEKLKDFGECVIALQASVIKKFLQGFMAPKQKRRKLQSEDSAKTEEVDEEKKMVEEAKVASALEKWKTAIREAQTFSRMHVLLGMLDACIKWDMSAENARCKVCRKKGEDDKLILCDECNKAFHLFCLRPALYEVPDGEWQCPACQPATARRNSRGRNYTEESASEDSEDDESDEEEEEEEEEEEEEDYEVAGLRLRPRKTIRGKHSVIPPAARSGRRPGKKPHSTRRSQPKAPPVDDAEVDELVLQTKRSSRRQSLELQKCEEILHKIVKYRFSWPFREPVTRDEAEDYYDVITHPMDFQTVQNKCSCGSYRSVQEFLTDMKQVFTNAEVYNCRGSHVLSCMVKTEQCLVALLHKHLPGHPYVRRKRKKFPDRLAEDEGDSEPEAVGQSRGRRQKK
On to B1, for which the binding result in assay [3] is “binds”.

B2: WSTF, endogenous in IMR90 (protein, UniProt Q9UIG0 1-1483)
chain: MAPLLGRKPFPLVKPLPGEEPLFTIPHTQEAFRTREEYEARLERYSERIWTCKSTGSSQLTHKEAWEEEQEVAELLKEEFPAWYEKLVLEMVHHNTASLEKLVDTAWLEIMTKYAVGEECDFEVGKEKMLKVKIVKIHPLEKVDEEATEKKSDGACDSPSSDKENSSQIAQDHQKKETVVKEDEGRRESINDRARRSPRKLPTSLKKGERKWAPPKFLPHKYDVKLQNEDKIISNVPADSLIRTERPPNKEIVRYFIRHNALRAGTGENAPWVVEDELVKKYSLPSKFSDFLLDPYKYMTLNPSTKRKNTGSPDRKPSKKSKTDNSSLSSPLNPKLWCHVHLKKSLSGSPLKVKNSKNSKSPEEHLEEMMKMMSPNKLHTNFHIPKKGPPAKKPGKHSDKPLKAKGRSKGILNGQKSTGNSKSPKKGLKTPKTKMKQMTLLDMAKGTQKMTRAPRNSGGTPRTSSKPHKHLPPAALHLIAYYKENKDREDKRSALSCVISKTARLLSSEDRARLPEELRSLVQKRYELLEHKKRWASMSEEQRKEYLKKKREELKKKLKEKAKERREKEMLERLEKQKRYEDQELTGKNLPAFRLVDTPEGLPNTLFGDVAMVVEFLSCYSGLLLPDAQYPITAVSLMEALSADKGGFLYLNRVLVILLQTLLQDEIAEDYGELGMKLSEIPLTLHSVSELVRLCLRRSDVQEESEGSDTDDNKDSAAFEDNEVQDEFLEKLETSEFFELTSEEKLQILTALCHRILMTYSVQDHMETRQQMSAELWKERLAVLKEENDKKRAEKQKRKEMEAKNKENGKVENGLGKTDRKKEIVKFEPQVDTEAEDMISAVKSRRLLAIQAKKEREIQEREMKVKLERQAEEERIRKHKAAAEKAFQEGIAKAKLVMRRTPIGTDRNHNRYWLFSDEVPGLFIEKGWVHDSIDYRFNHHCKDHTVSGDEDYCPRSKKANLGKNASMNTQHGTATEVAVETTTPKQGQNLWFLCDSQKELDELLNCLHPQGIRESQLKERLEKRYQDIIHSIHLARKPNLGLKSCDGNQELLNFLRSDLIEVATRLQKGGLGYVEETSEFEARVISLEKLKDFGECVIALQASVIKKFLQGFMAPKQKRRKLQSEDSAKTEEVDEEKKMVEEAKVASALEKWKTAIREAQTFSRMHVLLGMLDACIKWDMSAENARCKVCRKKGEDDKLILCDECNKAFHLFCLRPALYEVPDGEWQCPACQPATARRNSRGRNYTEESASEDSEDDESDEEEEEEEEEEEEEDYEVAGLRLRPRKTIRGKHSVIPPAARSGRRPGKKPHSTRRSQPKAPPVDDAEVDELVLQTKRSSRRQSLELQKCEEILHKIVKYRFSWPFREPVTRDEAEDYYDVITHPMDFQTVQNKCSCGSYRSVQEFLTDMKQVFTNAEVYNCRGSHVLSCMVKTEQCLVALLHKHLPGHPYVRRKRKKFPDRLAEDEGDSEPEAVGQSRGRRQKK
Consider B2, for which the binding result in assay [4] is “binds”.
